The source of these data is the supplement of paper PMC12067093, “Discovery and optimisation of a covalent ligand for TRIM25 and its application to targeted protein ubiquitination” (Chemical Science, 2025).

Amino acid sequences for entries named in this document (tags omitted). A change or cut given only in a name is not applied to a line headed by its entry.
UniProt Q9UQC2, whole entry, looked up: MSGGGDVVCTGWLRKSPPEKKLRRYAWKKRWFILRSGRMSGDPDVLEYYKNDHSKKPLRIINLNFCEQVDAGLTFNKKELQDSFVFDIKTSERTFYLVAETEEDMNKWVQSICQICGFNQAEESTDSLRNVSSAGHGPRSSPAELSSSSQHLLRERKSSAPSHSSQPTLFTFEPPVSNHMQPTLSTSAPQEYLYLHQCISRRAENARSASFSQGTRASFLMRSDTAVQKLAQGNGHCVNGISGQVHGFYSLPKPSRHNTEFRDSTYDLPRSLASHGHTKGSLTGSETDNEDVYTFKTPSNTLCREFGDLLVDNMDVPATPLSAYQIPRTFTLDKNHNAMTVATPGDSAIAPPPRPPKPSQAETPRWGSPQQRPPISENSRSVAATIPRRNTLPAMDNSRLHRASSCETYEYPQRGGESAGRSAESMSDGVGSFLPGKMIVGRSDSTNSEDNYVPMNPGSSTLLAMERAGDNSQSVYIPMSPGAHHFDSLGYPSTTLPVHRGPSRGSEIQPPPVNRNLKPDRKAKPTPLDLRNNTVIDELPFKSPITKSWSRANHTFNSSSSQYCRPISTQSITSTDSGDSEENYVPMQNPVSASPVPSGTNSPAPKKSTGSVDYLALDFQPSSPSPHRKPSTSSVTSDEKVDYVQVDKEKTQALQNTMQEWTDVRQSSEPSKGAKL
UniProt P51116, whole entry, looked up: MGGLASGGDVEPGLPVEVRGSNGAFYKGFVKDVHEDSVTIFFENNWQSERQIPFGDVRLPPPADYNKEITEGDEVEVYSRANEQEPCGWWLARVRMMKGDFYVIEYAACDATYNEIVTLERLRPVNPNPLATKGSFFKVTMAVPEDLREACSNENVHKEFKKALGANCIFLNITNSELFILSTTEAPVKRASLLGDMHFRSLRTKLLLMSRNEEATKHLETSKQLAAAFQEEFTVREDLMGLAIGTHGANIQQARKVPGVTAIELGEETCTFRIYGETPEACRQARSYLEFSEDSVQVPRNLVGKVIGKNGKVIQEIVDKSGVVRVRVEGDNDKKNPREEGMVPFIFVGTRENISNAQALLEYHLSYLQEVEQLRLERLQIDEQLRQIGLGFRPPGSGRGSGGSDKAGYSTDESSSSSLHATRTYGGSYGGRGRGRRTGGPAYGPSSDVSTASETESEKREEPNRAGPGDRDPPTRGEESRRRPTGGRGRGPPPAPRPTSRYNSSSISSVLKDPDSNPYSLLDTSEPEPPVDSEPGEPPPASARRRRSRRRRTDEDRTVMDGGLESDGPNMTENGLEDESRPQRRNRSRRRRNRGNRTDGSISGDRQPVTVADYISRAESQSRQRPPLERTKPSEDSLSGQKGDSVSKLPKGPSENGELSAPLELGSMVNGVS
UniProt Q96CP2: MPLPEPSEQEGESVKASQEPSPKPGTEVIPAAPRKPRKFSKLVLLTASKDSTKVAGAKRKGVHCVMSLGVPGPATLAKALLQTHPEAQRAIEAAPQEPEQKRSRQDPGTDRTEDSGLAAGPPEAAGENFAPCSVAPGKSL
UniProt Q02790: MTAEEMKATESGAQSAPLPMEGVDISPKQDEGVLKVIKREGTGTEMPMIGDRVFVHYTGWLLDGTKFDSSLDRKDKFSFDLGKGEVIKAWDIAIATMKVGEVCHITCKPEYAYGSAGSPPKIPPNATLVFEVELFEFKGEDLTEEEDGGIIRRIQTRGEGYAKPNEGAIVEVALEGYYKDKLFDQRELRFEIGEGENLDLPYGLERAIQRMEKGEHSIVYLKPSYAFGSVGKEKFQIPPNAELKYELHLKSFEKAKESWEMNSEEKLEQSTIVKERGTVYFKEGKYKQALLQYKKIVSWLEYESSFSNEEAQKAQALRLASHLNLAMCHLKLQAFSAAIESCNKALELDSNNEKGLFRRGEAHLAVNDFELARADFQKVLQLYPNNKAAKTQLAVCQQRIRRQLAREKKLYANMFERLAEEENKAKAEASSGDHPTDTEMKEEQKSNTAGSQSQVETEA
UniProt Q9Y2H6: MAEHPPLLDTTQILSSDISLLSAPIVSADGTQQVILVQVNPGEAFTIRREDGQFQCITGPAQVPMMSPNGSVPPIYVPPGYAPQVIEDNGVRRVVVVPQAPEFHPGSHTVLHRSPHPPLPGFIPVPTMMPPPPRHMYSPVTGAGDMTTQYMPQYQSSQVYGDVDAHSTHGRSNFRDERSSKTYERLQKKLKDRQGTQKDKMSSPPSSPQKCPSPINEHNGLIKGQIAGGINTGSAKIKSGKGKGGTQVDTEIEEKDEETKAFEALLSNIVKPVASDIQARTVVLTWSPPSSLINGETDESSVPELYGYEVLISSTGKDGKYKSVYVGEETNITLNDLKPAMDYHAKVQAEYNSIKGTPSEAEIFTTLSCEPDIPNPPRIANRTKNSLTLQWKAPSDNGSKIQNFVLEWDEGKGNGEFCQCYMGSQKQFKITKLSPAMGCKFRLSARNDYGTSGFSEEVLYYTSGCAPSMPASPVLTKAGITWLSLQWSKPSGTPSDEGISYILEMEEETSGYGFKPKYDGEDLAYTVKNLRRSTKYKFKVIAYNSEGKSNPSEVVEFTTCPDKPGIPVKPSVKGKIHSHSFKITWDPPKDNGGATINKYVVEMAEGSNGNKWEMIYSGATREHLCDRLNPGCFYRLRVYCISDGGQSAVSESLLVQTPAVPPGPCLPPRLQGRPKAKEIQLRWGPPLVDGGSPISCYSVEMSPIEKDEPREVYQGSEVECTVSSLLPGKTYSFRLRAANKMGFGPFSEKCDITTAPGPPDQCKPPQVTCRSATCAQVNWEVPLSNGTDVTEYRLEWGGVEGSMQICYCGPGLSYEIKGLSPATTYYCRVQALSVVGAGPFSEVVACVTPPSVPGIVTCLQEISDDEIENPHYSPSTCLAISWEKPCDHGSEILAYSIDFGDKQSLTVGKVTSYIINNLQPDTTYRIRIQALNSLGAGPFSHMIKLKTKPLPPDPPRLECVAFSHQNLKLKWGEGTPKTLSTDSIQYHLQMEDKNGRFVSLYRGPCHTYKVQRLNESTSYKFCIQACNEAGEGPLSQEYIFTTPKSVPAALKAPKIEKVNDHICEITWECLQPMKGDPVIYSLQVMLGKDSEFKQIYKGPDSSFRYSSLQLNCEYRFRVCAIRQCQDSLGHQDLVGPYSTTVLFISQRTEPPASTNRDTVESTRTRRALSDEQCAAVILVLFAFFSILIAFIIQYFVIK
UniProt P85037: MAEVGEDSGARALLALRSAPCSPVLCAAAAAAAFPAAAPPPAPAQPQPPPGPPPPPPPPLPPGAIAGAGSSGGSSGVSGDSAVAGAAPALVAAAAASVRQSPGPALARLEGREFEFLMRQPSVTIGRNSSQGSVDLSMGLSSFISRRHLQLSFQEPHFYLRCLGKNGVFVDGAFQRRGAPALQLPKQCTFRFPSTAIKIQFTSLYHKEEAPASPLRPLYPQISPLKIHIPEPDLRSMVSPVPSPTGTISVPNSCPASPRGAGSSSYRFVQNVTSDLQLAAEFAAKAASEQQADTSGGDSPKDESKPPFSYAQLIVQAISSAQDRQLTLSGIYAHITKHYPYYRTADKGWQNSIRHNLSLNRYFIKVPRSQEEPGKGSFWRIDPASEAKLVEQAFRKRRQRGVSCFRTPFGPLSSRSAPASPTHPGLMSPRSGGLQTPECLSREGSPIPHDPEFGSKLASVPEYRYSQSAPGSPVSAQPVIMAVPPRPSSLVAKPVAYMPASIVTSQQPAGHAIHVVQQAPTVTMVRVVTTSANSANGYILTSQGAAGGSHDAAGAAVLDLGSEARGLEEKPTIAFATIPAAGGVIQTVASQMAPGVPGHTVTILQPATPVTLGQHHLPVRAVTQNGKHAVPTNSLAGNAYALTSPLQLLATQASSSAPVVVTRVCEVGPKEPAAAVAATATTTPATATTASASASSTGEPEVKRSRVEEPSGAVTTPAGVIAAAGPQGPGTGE
UniProt Q5T1M5: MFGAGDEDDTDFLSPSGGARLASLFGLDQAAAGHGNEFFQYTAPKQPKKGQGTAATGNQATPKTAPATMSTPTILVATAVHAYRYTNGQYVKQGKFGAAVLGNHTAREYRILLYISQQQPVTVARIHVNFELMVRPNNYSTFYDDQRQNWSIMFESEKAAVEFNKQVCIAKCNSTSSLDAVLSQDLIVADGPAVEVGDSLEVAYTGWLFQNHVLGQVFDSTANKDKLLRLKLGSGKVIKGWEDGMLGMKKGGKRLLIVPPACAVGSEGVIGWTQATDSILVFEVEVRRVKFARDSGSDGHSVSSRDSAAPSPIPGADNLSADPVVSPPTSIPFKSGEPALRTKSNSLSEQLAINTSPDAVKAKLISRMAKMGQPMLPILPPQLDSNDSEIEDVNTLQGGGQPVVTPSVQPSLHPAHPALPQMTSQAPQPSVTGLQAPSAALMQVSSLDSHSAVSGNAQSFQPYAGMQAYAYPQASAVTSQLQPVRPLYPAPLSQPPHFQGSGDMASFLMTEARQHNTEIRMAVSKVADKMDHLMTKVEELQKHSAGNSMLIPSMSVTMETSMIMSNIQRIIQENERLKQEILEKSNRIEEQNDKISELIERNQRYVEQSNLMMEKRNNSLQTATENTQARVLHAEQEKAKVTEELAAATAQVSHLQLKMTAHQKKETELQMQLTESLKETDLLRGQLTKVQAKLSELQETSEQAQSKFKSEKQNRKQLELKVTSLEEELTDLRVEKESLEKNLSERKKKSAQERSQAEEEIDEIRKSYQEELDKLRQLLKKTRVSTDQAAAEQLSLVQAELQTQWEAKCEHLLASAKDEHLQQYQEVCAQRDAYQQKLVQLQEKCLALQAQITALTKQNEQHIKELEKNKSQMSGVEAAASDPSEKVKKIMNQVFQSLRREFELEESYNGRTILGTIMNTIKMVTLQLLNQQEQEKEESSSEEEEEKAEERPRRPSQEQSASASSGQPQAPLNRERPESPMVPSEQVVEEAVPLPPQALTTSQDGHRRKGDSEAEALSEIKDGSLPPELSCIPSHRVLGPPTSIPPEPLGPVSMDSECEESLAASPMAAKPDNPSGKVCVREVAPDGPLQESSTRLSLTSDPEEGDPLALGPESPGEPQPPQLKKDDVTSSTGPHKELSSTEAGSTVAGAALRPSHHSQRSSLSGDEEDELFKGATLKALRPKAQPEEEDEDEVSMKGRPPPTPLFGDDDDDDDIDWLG
UniProt Q8NFG4: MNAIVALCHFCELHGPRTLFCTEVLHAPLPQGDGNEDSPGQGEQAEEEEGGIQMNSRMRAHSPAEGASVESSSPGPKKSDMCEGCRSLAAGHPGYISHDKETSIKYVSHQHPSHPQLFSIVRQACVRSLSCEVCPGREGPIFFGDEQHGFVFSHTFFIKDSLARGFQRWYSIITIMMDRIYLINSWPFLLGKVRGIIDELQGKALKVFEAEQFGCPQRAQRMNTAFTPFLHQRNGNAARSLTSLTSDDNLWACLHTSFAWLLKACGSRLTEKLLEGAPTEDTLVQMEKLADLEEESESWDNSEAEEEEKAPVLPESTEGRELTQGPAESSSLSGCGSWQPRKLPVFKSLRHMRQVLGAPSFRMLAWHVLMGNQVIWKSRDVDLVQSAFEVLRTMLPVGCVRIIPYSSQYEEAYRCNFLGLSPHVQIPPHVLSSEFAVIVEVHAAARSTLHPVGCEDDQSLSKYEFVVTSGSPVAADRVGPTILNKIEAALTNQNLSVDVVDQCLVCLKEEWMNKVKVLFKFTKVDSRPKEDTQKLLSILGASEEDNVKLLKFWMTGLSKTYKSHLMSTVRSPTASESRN
UniProt P11413, whole entry, looked up: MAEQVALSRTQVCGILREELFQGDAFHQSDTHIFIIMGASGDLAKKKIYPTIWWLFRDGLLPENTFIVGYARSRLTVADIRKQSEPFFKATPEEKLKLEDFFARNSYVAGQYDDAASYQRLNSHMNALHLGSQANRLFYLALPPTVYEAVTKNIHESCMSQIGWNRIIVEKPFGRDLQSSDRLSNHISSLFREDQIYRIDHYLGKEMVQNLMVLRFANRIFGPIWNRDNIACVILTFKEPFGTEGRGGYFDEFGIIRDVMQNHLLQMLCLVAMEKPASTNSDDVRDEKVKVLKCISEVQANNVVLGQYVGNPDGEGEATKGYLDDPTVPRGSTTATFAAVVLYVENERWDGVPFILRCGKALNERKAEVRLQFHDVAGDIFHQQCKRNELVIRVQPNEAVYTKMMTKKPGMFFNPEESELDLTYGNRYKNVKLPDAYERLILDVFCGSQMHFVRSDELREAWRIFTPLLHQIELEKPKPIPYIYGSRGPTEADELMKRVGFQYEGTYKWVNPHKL
UniProt P62942, whole entry, looked up: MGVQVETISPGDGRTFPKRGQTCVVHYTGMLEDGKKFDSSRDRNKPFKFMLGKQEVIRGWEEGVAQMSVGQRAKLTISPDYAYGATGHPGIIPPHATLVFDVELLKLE

Some of the results follow.
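Note: competitive chemoproteomic profiling in live THP-1 cells with an iodoacetamide desthiobiotin (IA-DTB) probe, comparing probe-labelled peptide intensities in compound-treated cells against DMSO-treated controls.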

Compound in one experiment: CC1Cc2ccccc2N1C(=O)C1CCCN(C1)C(=O)CCl (mixture of isomers) [TRIM25 ligand 11 (diastereomer mixture)]
As to the kind of experiment: probe-labelled cysteine peptide fold change vs DMSO (competition) (log2 fold change); higher = less target engagement (more negative = stronger competition). Particulars: 10 µM; THP-1; incubation time: 4 h.
With “GAB2_Q9UQC2_303_TPSNTLCR (UniProt Q9UQC2)”, the “probe-labelled cysteine peptide fold change” value is -0.089.

For the target “GAB2_Q9UQC2_237_LAQGNGHCVNGISGQVHGFYSLPK (UniProt Q9UQC2)”, the “probe-labelled cysteine peptide fold change” value was 0.0237.

With “FXR1_P51114_129_CTVDVPEDLREACANENAHK (UniProt P51114)”, the “probe-labelled cysteine peptide fold change” value was -0.102.

On to “FXR2_P51116_282_IYGETPEACR (UniProt P51116)”, for which the “probe-labelled cysteine peptide fold change” value was -0.117.

With “FLII_Q13045_1067_TNGSALCTR (UniProt Q13045)”, the “probe-labelled cysteine peptide fold change” value was -0.0286.

In the case of “FLII_Q13045_933+938_LPEEEFGHFYTQDCYVFLCR (UniProt Q13045)”, the “probe-labelled cysteine peptide fold change” value is -0.148.

With “FRMD8_Q9BZ67_206_LDSFLPAHLCK (UniProt Q9BZ67)”, the “probe-labelled cysteine peptide fold change” value worked out at 0.143.

For “FLYWCH2_Q96CP2_64_GVHCVMSLGVPGPATLAK (UniProt Q96CP2)”, the “probe-labelled cysteine peptide fold change” value is -0.275.

As for “FKBP5_Q13451_215_EEQCILYLGPR (UniProt Q13451)”, the “probe-labelled cysteine peptide fold change” value was -0.107.

As to “FSCN1_Q16658_80_DGNVTCER (UniProt Q16658)”, the “probe-labelled cysteine peptide fold change” value was -0.0775.

In the case of “FKBP4_Q02790_328_LASHLNLAMCHLK (UniProt Q02790)”, the “probe-labelled cysteine peptide fold change” value was -0.0218.

Consider “FRY_Q5TBA9_869_HCPTALSYAWPYAFTR (UniProt Q5TBA9)”, for which the “probe-labelled cysteine peptide fold change” value was -0.0148.

“FNDC3A_Q9Y2H6_560_SNPSEVVEFTTCPDKPGIPVKPSVK (UniProt Q9Y2H6)”: the “probe-labelled cysteine peptide fold change” value was -0.143.

Consider “FUBP3_Q96I24_125_IQIASESSGIPERPCVLTGTPESIEQAK (UniProt Q96I24)”, for which the “probe-labelled cysteine peptide fold change” value amounted to 0.000109.

On to “FLNB_O75369_2154_NSHCVR (UniProt O75369)”, for which the “probe-labelled cysteine peptide fold change” value stood at 0.172.

In the case of “FOXK1_P85037_439_SGGLQTPECLSR (UniProt P85037)”, the “probe-labelled cysteine peptide fold change” value is -0.0677.

As for “FLII_Q13045_119_LDDLSVLDLSHNQLTECPR (UniProt Q13045)”, the “probe-labelled cysteine peptide fold change” value was 0.16.

On to “FHOD1_Q9Y613_31_VQYLEDTDPFACANFPEPR (UniProt Q9Y613)”, for which the “probe-labelled cysteine peptide fold change” value was -0.209.

As for “FKBP15_Q5T1M5_1031_DGSLPPELSCIPSHR (UniProt Q5T1M5)”, the “probe-labelled cysteine peptide fold change” value amounted to 0.00994.

Consider “FKBP8_Q14318_274_CLNNLAASQLK (UniProt Q14318)”, for which the “probe-labelled cysteine peptide fold change” value came out at 0.0345.

“FLCN_Q8NFG4_215_VFEAEQFGCPQR (UniProt Q8NFG4)”: the “probe-labelled cysteine peptide fold change” value was found to be 0.0678.

For “FLNB_O75369_2057_VDIQTEDLEDGTCK (UniProt O75369)”, the “probe-labelled cysteine peptide fold change” value was determined as 0.0218.

Regarding “GABPB1_Q06547_331_QCIEIIENRVESAEIEER (UniProt Q06547)”, the “probe-labelled cysteine peptide fold change” value is -0.221.

As for “G6PC3_Q9BUM1_269_DSGAALGLGIALHSPCYAQVR (UniProt Q9BUM1)”, the “probe-labelled cysteine peptide fold change” value came to 0.0276.

“FKBP8_Q14318_227_KRECGNAHYQR (UniProt Q14318)”: the “probe-labelled cysteine peptide fold change” value was -0.184.

For the target “G6PD_P11413_269_DVMQNHLLQMLCLVAMEK (UniProt P11413)”, the “probe-labelled cysteine peptide fold change” value came to 0.246.

With “FNDC3A_Q9Y2H6_369_GTPSEAEIFTTLSCEPDIPNPPR (UniProt Q9Y2H6)”, the “probe-labelled cysteine peptide fold change” value was found to be 0.0204.

Consider “FTSJ1_Q9UET6_238_IIVPFVTCGDLSSYDSDR (UniProt Q9UET6)”, for which the “probe-labelled cysteine peptide fold change” value is -0.0326.

On to “FKBP5_Q13451_340_AVECCDK (UniProt Q13451)”, for which the “probe-labelled cysteine peptide fold change” value amounted to 0.024.

For the target “FKBP1A_P62942_23_RGQTCVVHYTGMLEDGKK (UniProt P62942)”, the “probe-labelled cysteine peptide fold change” value was -0.11.

Take “GABPB1_Q06547_331_RQCIEIIENR (UniProt Q06547)”: the “probe-labelled cysteine peptide fold change” value was 0.0238.

For the target “FNDC3B_Q53EP0_1025_LTEFTCYSFR (UniProt Q53EP0)”, the “probe-labelled cysteine peptide fold change” value amounted to 0.331.

On to “FRY_Q5TBA9_2494_CDMQILEER (UniProt Q5TBA9)”, for which the “probe-labelled cysteine peptide fold change” value was found to be 0.00193.

On to “FRMD8_Q9BZ67_206_EKLDSFLPAHLCK (UniProt Q9BZ67)”, for which the “probe-labelled cysteine peptide fold change” value was -0.203.

“FNDC3B_Q53EP0_966_LECAAAGPQSLK (UniProt Q53EP0)”: the “probe-labelled cysteine peptide fold change” value worked out at 0.0509.

Consider “FUT8_Q9BYC5_212_KLVCNINK (UniProt Q9BYC5)”, for which the “probe-labelled cysteine peptide fold change” value is -0.175.

Turning to “FRY_Q5TBA9_1809_AFGPLWCHEDITPK (UniProt Q5TBA9)”, the “probe-labelled cysteine peptide fold change” value was -0.0694.

Still in this experiment, the particulars now being: 50 µM; THP-1; incubation time: 4 h.
For “GAB2_Q9UQC2_303_TPSNTLCR (UniProt Q9UQC2)”, the “probe-labelled cysteine peptide fold change” value was -0.0741.

As for “GAB2_Q9UQC2_237_LAQGNGHCVNGISGQVHGFYSLPK (UniProt Q9UQC2)”, the “probe-labelled cysteine peptide fold change” value was -0.0461.

As to “FXR1_P51114_129_CTVDVPEDLREACANENAHK (UniProt P51114)”, the “probe-labelled cysteine peptide fold change” value is -0.0151.

On to “FXR2_P51116_282_IYGETPEACR (UniProt P51116)”, for which the “probe-labelled cysteine peptide fold change” value is 0.24.

On to “FLII_Q13045_1067_TNGSALCTR (UniProt Q13045)”, for which the “probe-labelled cysteine peptide fold change” value is 0.125.

Consider “FLII_Q13045_933+938_LPEEEFGHFYTQDCYVFLCR (UniProt Q13045)”, for which the “probe-labelled cysteine peptide fold change” value was 0.135.

Take “FRMD8_Q9BZ67_206_LDSFLPAHLCK (UniProt Q9BZ67)”: the “probe-labelled cysteine peptide fold change” value amounted to 0.137.

As to “FLYWCH2_Q96CP2_64_GVHCVMSLGVPGPATLAK (UniProt Q96CP2)”, the “probe-labelled cysteine peptide fold change” value was -0.158.

In the case of “FKBP5_Q13451_215_EEQCILYLGPR (UniProt Q13451)”, the “probe-labelled cysteine peptide fold change” value was -0.112.

Consider “FSCN1_Q16658_80_DGNVTCER (UniProt Q16658)”, for which the “probe-labelled cysteine peptide fold change” value is -0.0447.

As to “FKBP4_Q02790_328_LASHLNLAMCHLK (UniProt Q02790)”, the “probe-labelled cysteine peptide fold change” value came to 0.0219.

For “FRY_Q5TBA9_869_HCPTALSYAWPYAFTR (UniProt Q5TBA9)”, the “probe-labelled cysteine peptide fold change” value worked out at 0.0583.

In the case of “FNDC3A_Q9Y2H6_560_SNPSEVVEFTTCPDKPGIPVKPSVK (UniProt Q9Y2H6)”, the “probe-labelled cysteine peptide fold change” value is -0.0723.

With “FUBP3_Q96I24_125_IQIASESSGIPERPCVLTGTPESIEQAK (UniProt Q96I24)”, the “probe-labelled cysteine peptide fold change” value was 0.149.

For “FLNB_O75369_2154_NSHCVR (UniProt O75369)”, the “probe-labelled cysteine peptide fold change” value was 0.148.

Consider “FOXK1_P85037_439_SGGLQTPECLSR (UniProt P85037)”, for which the “probe-labelled cysteine peptide fold change” value is -0.3.

Regarding “FLII_Q13045_119_LDDLSVLDLSHNQLTECPR (UniProt Q13045)”, the “probe-labelled cysteine peptide fold change” value turned out to be 0.088.

For the target “FHOD1_Q9Y613_31_VQYLEDTDPFACANFPEPR (UniProt Q9Y613)”, the “probe-labelled cysteine peptide fold change” value was found to be 0.138.

As to “FKBP15_Q5T1M5_1031_DGSLPPELSCIPSHR (UniProt Q5T1M5)”, the “probe-labelled cysteine peptide fold change” value was -0.0562.

With “FKBP8_Q14318_274_CLNNLAASQLK (UniProt Q14318)”, the “probe-labelled cysteine peptide fold change” value came out at 0.0605.

In the case of “FLCN_Q8NFG4_215_VFEAEQFGCPQR (UniProt Q8NFG4)”, the “probe-labelled cysteine peptide fold change” value is -0.0835.

As for “FLNB_O75369_2057_VDIQTEDLEDGTCK (UniProt O75369)”, the “probe-labelled cysteine peptide fold change” value came to 0.0249.

For the target “GABPB1_Q06547_331_QCIEIIENRVESAEIEER (UniProt Q06547)”, the “probe-labelled cysteine peptide fold change” value is -0.162.

Turning to “G6PC3_Q9BUM1_269_DSGAALGLGIALHSPCYAQVR (UniProt Q9BUM1)”, the “probe-labelled cysteine peptide fold change” value stood at 0.0953.

For the target “FKBP8_Q14318_227_KRECGNAHYQR (UniProt Q14318)”, the “probe-labelled cysteine peptide fold change” value was -0.23.

For “G6PD_P11413_269_DVMQNHLLQMLCLVAMEK (UniProt P11413)”, the “probe-labelled cysteine peptide fold change” value was 0.175.

In the case of “FNDC3A_Q9Y2H6_369_GTPSEAEIFTTLSCEPDIPNPPR (UniProt Q9Y2H6)”, the “probe-labelled cysteine peptide fold change” value was -0.545.

As for “FTSJ1_Q9UET6_238_IIVPFVTCGDLSSYDSDR (UniProt Q9UET6)”, the “probe-labelled cysteine peptide fold change” value was 0.0546.

Regarding “FKBP5_Q13451_340_AVECCDK (UniProt Q13451)”, the “probe-labelled cysteine peptide fold change” value is -0.0377.

Consider “FKBP1A_P62942_23_RGQTCVVHYTGMLEDGKK (UniProt P62942)”, for which the “probe-labelled cysteine peptide fold change” value is -0.229.

Turning to “GABPB1_Q06547_331_RQCIEIIENR (UniProt Q06547)”, the “probe-labelled cysteine peptide fold change” value is -0.198.

Regarding “FNDC3B_Q53EP0_1025_LTEFTCYSFR (UniProt Q53EP0)”, the “probe-labelled cysteine peptide fold change” value is 0.28.

Regarding “FRY_Q5TBA9_2494_CDMQILEER (UniProt Q5TBA9)”, the “probe-labelled cysteine peptide fold change” value was -0.209.

In the case of “FRMD8_Q9BZ67_206_EKLDSFLPAHLCK (UniProt Q9BZ67)”, the “probe-labelled cysteine peptide fold change” value is -0.206.

As for “FNDC3B_Q53EP0_966_LECAAAGPQSLK (UniProt Q53EP0)”, the “probe-labelled cysteine peptide fold change” value worked out at 0.0341.

For the target “FUT8_Q9BYC5_212_KLVCNINK (UniProt Q9BYC5)”, the “probe-labelled cysteine peptide fold change” value was -0.156.

For the target “FRY_Q5TBA9_1809_AFGPLWCHEDITPK (UniProt Q5TBA9)”, the “probe-labelled cysteine peptide fold change” value is -0.0471.
